Paper PMC2896402

Amino acid sequences for entries named in this document (tags omitted). A change or cut given only in a name is not applied to a line headed by its entry.
UniProt O43524, whole entry, stated change not applied: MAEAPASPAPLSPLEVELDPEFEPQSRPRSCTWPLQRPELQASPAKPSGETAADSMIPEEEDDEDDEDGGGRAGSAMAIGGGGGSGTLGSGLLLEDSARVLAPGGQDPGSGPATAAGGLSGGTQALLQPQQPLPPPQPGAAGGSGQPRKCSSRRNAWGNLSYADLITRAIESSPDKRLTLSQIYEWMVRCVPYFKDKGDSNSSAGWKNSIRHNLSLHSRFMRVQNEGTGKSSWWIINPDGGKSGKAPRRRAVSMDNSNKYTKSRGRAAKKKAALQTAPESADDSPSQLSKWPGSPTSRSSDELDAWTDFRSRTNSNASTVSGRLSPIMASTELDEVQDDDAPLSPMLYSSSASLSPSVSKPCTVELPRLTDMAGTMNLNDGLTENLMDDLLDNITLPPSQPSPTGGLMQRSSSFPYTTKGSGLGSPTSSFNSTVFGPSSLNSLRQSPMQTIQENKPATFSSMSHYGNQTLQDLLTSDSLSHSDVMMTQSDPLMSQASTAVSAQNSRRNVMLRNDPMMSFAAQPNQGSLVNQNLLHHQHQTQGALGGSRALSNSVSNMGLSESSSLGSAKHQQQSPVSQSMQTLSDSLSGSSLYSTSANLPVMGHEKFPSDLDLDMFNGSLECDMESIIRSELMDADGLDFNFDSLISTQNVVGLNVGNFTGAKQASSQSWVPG

Target: HA-FOXO3 (UniProt O43524)
Experiment: co-IP; total lysates of 293T cells cotransfected with HA-tagged FOXO3 plus myc-tagged βTrCP1 or βTrCP1ΔF, and IKKβ or an empty vector; IP anti-myc and IB anti-HA, and reciprocal IP anti-HA and IB anti-myc

βTrCP1ΔF-myc (from UniProt Q9Y297) was tested, and the binding was “binds”.

These are yes or no findings as the source states them, for the method shown. In cells and extracts the contact can be indirect. Binding calls can cover weak binding; strength is not graded here.
